Experimental data as given in patent US20200340060A1, “COMPOSITIONS AND METHODS FOR IDENTIFYING AND TREATING LIVER DISEASES AND MONITORING TREATMENT OUTCOMES” (Gilead Sciences, Inc., priority 2017, published 2020).

Experiment: SOMAscan serum proteomics in NASH subjects treated with selonsertib/simtuzumab, baseline and week 24
Design: species or system human
Details: serum protein marker level, week 24 vs baseline
[1] = lobular inflammation non-improvers
[2] = hepatic ballooning non-improvers

Molecule | Median percent CHG at W24 in improver (lobular inflammation improvers) [%] | Median percent CHG at W24 in Non-improver [1] [%] | Median percent CHG at W24 in improver (hepatic ballooning improvers) [%] | Median percent CHG at W24 in Non-improver [2] [%]
KIF23 (protein, UniProt Q02241 1-960, looked up) Kinesin-like protein KIF23: MKSARAKTPRKPTVKKGSQTNLKDPVGVYCRVRPLGFPDQECCIEVINNTTVQLHTPEGYRLNRNGDYKETQYSFKQVFGTHTTQKELFDVVANPLVNDLIHGKNGLLFTYGVTGSGKTHTMTGSPGEGGLLPRCLDMIFNSIGSFQAKRYVFKSNDRNSMDIQCEVDALLERQKREAMPNPKTSSSKRQVDPEFADMITVQEFCKAEEVDEDSVYGVFVSYIEIYNNYIYDLLEEVPFDPIKPKPPQSKLLREDKNHNMYVAGCTEVEVKSTEEAFEVFWRGQKKRRIANTHLNRESSRSHSVFNIKLVQAPLDADGDNVLQEKEQITISQLSLVDLAGSERTNRTRAEGNRLREAGNINQSLMTLRTCMDVLRENQMYGTNKMVPYRDSKLTHLFKNYFDGEGKVRMIVCVNPKAEDYEENLQVMRFAEVTQEVEVARPVDKAICGLTPGRRYRNQPRGPVGNEPLVTDVVLQSFPPLPSCEILDINDEQTLPRLIEALEKRHNLRQMMIDEFNKQSNAFKALLQEFDNAVLSKENHMQGKLNEKEKMISGQKLEIERLEKKNKTLEYKIEILEKTTTIYEEDKRNLQQELETQNQKLQRQFSDKRRLEARLQGMVTETTMKWEKECERRVAAKQLEMQNKLWVKDEKLKQLKAIVTEPKTEKPERPSRERDREKVTQRSVSPSPVPLSSNYIAQISNGQQLMSQPQLHRRSNSCSSISVASCISEWEQKIPTYNTPLKVTSIARRRQQEPGQSKTCIVSDRRRGMYWTEGREVVPTFRNEIEIEEDHCGRLLFQPDQNAPPIRLRHRRSRSAGDRWVDHKPASNMQTETVMQPHVPHAITVSVANEKALAKCEKYMLTHQELASDGEIETKLIKGDIYKTRGGGQSVQFTDIETLKQESPNGSRKRRSSTVAPAQPDGAESEWTDVETRCSVAVEMRAGSQLGPGYQHHAQPKRKKP | 2.93 | −2.64 | – | –
CHST2 (protein, UniProt Q9Y4C5 1-530, looked up) Carbohydrate sulfotransferase …: MSRSPQRALPPGALPRLLQAAPAAAPRALLPQWPRRPGRRWPASPLGMKVFRRKALVLCAGYALLLVLTMLNLLDYKWHKEPLQQCNPDGPLGAAAGAAGGSWGRPGPPPAGPPRAHARLDLRTPYRPPAAAVGAAPAAAAGMAGVAAPPGNGTRGTGGVGDKRQLVYVFTTWRSGSSFFGELFNQNPEVFFLYEPVWHVWQKLYPGDAVSLQGAARDMLSALYRCDLSVFQLYSPAGSGGRNLTTLGIFGAATNKVVCSSPLCPAYRKEVVGLVDDRVCKKCPPQRLARFEEECRKYRTLVIKGVRVFDVAVLAPLLRDPALDLKVIHLVRDPRAVASSRIRSRHGLIRESLQVVRSRDPRAHRMPFLEAAGHKLGAKKEGVGGPADYHALGAMEVICNSMAKTLQTALQPPDWLQGHYLVVRYEDLVGDPVKTLRRVYDFVGLLVSPEMEQFALNMTSGSGSSSKPFVVSARNATQAANAWRTALTFQQIKQVEEFCYQPMAVLGYERVNSPEEVKDLSKTLLRKPRL | −5.34 | 1.67 | – | –
ALT (protein, UniProt P24298 2-496, looked up) Alanine aminotransferase 1: ASSTGDRSQAVRHGLRAKVLTLDGMNPRVRRVEYAVRGPIVQRALELEQELRQGVKKPFTEVIRANIGDAQAMGQRPITFLRQVLALCVNPDLLSSPNFPDDAKKRAERILQACGGHSLGAYSVSSGIQLIREDVARYIERRDGGIPADPNNVFLSTGASDAIVTVLKLLVAGEGHTRTGVLIPIPQYPLYSATLAELGAVQVDYYLDEERAWALDVAELHRALGQARDHCRPRALCVINPGNPTGQVQTRECIEAVIRFAFEERLFLLADEVYQDNVYAAGSQFHSFKKVLMEMGPPYAGQQELASFHSTSKGYMGECGFRGGYVEVVNMDAAVQQQMLKLMSVRLCPPVPGQALLDLVVSPPAPTDPSFAQFQAEKQAVLAELAAKAKLTEQVFNEAPGISCNPVQGAMYSFPRVQLPPRAVERAQELGLAPDMFFCLRLLEETGICVVPGSGFGQREGTYHFRMTILPPLEKLRLLLEKLSRFHAKFTLEYS | −9.27 | −0.07 | – | –
LG3BP (protein, UniProt Q08380 19-585, looked up) Galectin-3-binding protein: VNDGDMRLADGGATNQGRVEIFYRGQWGTVCDNLWDLTDASVVCRALGFENATQALGRAAFGQGSGPIMLDEVQCTGTEASLADCKSLGWLKSNCRHERDAGVVCTNETRSTHTLDLSRELSEALGQIFDSQRGCDLSISVNVQGEDALGFCGHTVILTANLEAQALWKEPGSNVTMSVDAECVPMVRDLLRYFYSRRIDITLSSVKCFHKLASAYGARQLQGYCASLFAILLPQDPSFQMPLDLYAYAVATGDALLEKLCLQFLAWNFEALTQAEAWPSVPTDLLQLLLPRSDLAVPSELALLKAVDTWSWGERASHEEVEGLVEKIRFPMMLPEELFELQFNLSLYWSHEALFQKKTLQALEFHTVPFQLLARYKGLNLTEDTYKPRIYTSPTWSAFVTDSSWSARKSQLVYQSRRGPLVKYSSDYFQAPSDYRYYPYQSFQTPQHPSFLFQDKRVSWSLVYLPTIQSCWNYGFSCSSDELPVLGLTKSGGSDRTIAYENKALMLCEGLFVADVTDFEGWKAAIPSALDTNSSKSTSSFPCPAGHFNGFRTVIRPFYLTNSSGVD | – | – | −7.56 | 7.44
LYVE1 (protein, UniProt Q9Y5Y7 20-322, looked up) Lymphatic vessel endothelial …: LVQGSLRAEELSIQVSCRIMGITLVSKKANQQLNFTEAKEACRLLGLSLAGKDQVETALKASFETCSYGWVGDGFVVISRISPNPKCGKNGVGVLIWKVPVSRQFAAYCYNSSDTWTNSCIPEIITTKDPIFNTQTATQTTEFIVSDSTYSVASPYSTIPAPTTTPPAPASTSIPRRKKLICVTEVFMETSTMSTETEPFVENKAAFKNEAAGFGGVPTALLVLALLFFGAAAGLGFCYVKRYVKAFPFTNKNQQKEMIETKVVKEEKANDSNPNEESKKTDKNPEESKSPSKTTVRCLEAEV | −4.21 | 4.61 | – | –
Aminoacylase-1 (protein, UniProt Q03154 1-408, looked up) Aminoacylase-1: MTSKGPEEEHPSVTLFRQYLRIRTVQPKPDYGAAVAFFEETARQLGLGCQKVEVAPGYVVTVLTWPGTNPTLSSILLNSHTDVVPVFKEHWSHDPFEAFKDSEGYIYARGAQDMKCVSIQYLEAVRRLKVEGHRFPRTIHMTFVPDEEVGGHQGMELFVQRPEFHALRAGFALDEGIANPTDAFTVFYSERSPWWVRVTSTGRPGHASRFMEDTAAEKLHKVVNSILAFREKEWQRLQSNPHLKEGSVTSVNLTKLEGGVAYNVIPATMSASFDFRVAPDVDFKAFEEQLQSWCQAAGEGVTLEFAQKWMHPQVTPTDDSNPWWAAFSRVCKDMNLTLEPEIMPAATDNRYIRAVGVPALGFSPMNRTPVLLHDHDERLHEAVFLRGVDIYTRLLPALASVPALPSDS | −37.08 | −11.97 | – | –
CD5L (protein, UniProt O43866 20-347, looked up) CD5 antigen-like: SPSGVRLVGGLHRCEGRVEVEQKGQWGTVCDDGWDIKDVAVLCRELGCGAASGTPSGILYEPPAEKEQKVLIQSVSCTGTEDTLAQCEQEEVYDCSHDEDAGASCENPESSFSPVPEGVRLADGPGHCKGRVEVKHQNQWYTVCQTGWSLRAAKVVCRQLGCGRAVLTQKRCNKHAYGRKPIWLSQMSCSGREATLQDCPSGPWGKNTCNHDEDTWVECEDPFDLRLVGGDNLCSGRLEVLHKGVWGSVCDDNWGEKEDQVVCKQLGCGKSLSPSFRDRKCYGPGVGRIWLDNVRCSGEEQSLEQCQHRFWGFHDCTHQEDVAVICSG | −6.625 | 6.76 | – | –
NADPH-P450 Oxidoreductase (protein, UniProt P16435 2-677, looked up) NADPH--cytochrome P450 …: GDSHVDTSSTVSEAVAEEVSLFSMTDMILFSLIVGLLTYWFLFRKKKEEVPEFTKIQTLTSSVRESSFVEKMKKTGRNIIVFYGSQTGTAEEFANRLSKDAHRYGMRGMSADPEEYDLADLSSLPEIDNALVVFCMATYGEGDPTDNAQDFYDWLQETDVDLSGVKFAVFGLGNKTYEHFNAMGKYVDKRLEQLGAQRIFELGLGDDDGNLEEDFITWREQFWPAVCEHFGVEATGEESSIRQYELVVHTDIDAAKVYMGEMGRLKSYENQKPPFDAKNPFLAAVTTNRKLNQGTERHLMHLELDISDSKIRYESGDHVAVYPANDSALVNQLGKILGADLDVVMSLNNLDEESNKKHPFPCPTSYRTALTYYLDITNPPRTNVLYELAQYASEPSEQELLRKMASSSGEGKELYLSWVVEARRHILAILQDCPSLRPPIDHLCELLPRLQARYYSIASSSKVHPNSVHICAVVVEYETKAGRINKGVATNWLRAKEPAGENGGRALVPMFVRKSQFRLPFKATTPVIMVGPGTGVAPFIGFIQERAWLRQQGKEVGETLLYYGCRRSDEDYLYREELAQFHRDGALTQLNVAFSREQSHKVYVQHLLKQDREHLWKLIEGGAHIYVCGDARNMARDVQNTFYDIVAELGAMEHAQAVDYIKKLMTKGRYSLDVWS | −37.395 | −8.01 | – | –
Keratin 18 (protein, UniProt P05783 2-430, looked up) Keratin, type I cytoskeletal …: SFTTRSTFSTNYRSLGSVQAPSYGARPVSSAASVYAGAGGSGSRISVSRSTSFRGGMGSGGLATGIAGGLAGMGGIQNEKETMQSLNDRLASYLDRVRSLETENRRLESKIREHLEKKGPQVRDWSHYFKIIEDLRAQIFANTVDNARIVLQIDNARLAADDFRVKYETELAMRQSVENDIHGLRKVIDDTNITRLQLETEIEALKEELLFMKKNHEEEVKGLQAQIASSGLTVEVDAPKSQDLAKIMADIRAQYDELARKNREELDKYWSQQIEESTTVVTTQSAEVGAAETTLTELRRTVQSLEIDLDSMRNLKASLENSLREVEARYALQMEQLNGILLHLESELAQTRAEGQRQAQEYEALLNIKVKLEAEIATYRRLLEDGEDFNLGDALDSSNSMQTIQKTTTRRIVDGKVVSETNDTKVLRH | 4.1 | −0.96 | – | –
CBG (protein, UniProt P08185 23-405, looked up) Corticosteroid-binding …: MDPNAAYVNMSNHHRGLASANVDFAFSLYKHLVALSPKKNIFISPVSISMALAMLSLGTCGHTRAQLLQGLGFNLTERSETEIHQGFQHLHQLFAKSDTSLEMTMGNALFLDGSLELLESFSADIKHYYESEVLAMNFQDWATASRQINSYVKNKTQGKIVDLFSGLDSPAILVLVNYIFFKGTWTQPFDLASTREENFYVDETTVVKVPMMLQSSTISYLHDSELPCQLVQMNYVGNGTVFFILPDKGKMNTVIAALSRDTINRWSAGLTSSQVDLYIPKVTISGVYDLGDVLEEMGIADLFTNQANFSRITQDAQLKSSKVVHKAVLQLNEEGVDTAGSTGVTLNLTSKPIILRFNQPFIIMIFDHFTWSSLFLARVMNPV | 1.495 | −2.61 | 1.44 | −2.655
